Assay results from patent US20230330034A1, “COVALENTLY CROSS-LINKED GLYCOSYLATED MUCIN NANOPARTICLES AS SYSTEMS FOR THE DELIVERY AND RELEASE OF ACTIVE INGREDIENTS AND BIOMOLECULES” (priority 2020, published 2023).

Details: PAMPA, 5 h, 200 µM

Ca (t): 5.7 µM | Cd(t): 77.4 µM | Ceq: 34.4 µM
SMILES: O=C(O)c1cn(C2CC2)c2cc(N3CCNCC3)c(F)cc2c1=O [ciprofloxacin]
